± gives the standard deviation of the averaged measurements. Only a part is listed here, and it is no random draw.
Compound: Nc1ncnc2c1ncn2[C@@H]1O[C@H](COP(=O)(O)OP(=O)(O)OP(=O)(O)O)[C@@H](O)[C@H]1O [adenosine triphosphate]
Test: NP40-soluble protein abundance relative to vehicle (solubility fold change) (ratio); higher = more soluble protein in presence of ATP
Summary of the method: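 Across three independent experiments, values are fold changes against the detergent-processed vehicle for each replicate, based on vsn-normalised intensities. The samples were Jurkat crude lysate treated with eight concentrations (0.1 to 10 mM) for 10 min at room temperature and then 3 min at 37 °C. Lysate was solubilised with 0.8% NP40 and benzonase, ultracentrifuged, and the supernatant analysed by TMT-labelled LC-MS/MS.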

The chains behind the UniProt entries cited, without tags or fusion partners. Where a name states a change or a piece, a line headed by the entry shows the natural chain unless it says otherwise.
UniProt Q86WA8: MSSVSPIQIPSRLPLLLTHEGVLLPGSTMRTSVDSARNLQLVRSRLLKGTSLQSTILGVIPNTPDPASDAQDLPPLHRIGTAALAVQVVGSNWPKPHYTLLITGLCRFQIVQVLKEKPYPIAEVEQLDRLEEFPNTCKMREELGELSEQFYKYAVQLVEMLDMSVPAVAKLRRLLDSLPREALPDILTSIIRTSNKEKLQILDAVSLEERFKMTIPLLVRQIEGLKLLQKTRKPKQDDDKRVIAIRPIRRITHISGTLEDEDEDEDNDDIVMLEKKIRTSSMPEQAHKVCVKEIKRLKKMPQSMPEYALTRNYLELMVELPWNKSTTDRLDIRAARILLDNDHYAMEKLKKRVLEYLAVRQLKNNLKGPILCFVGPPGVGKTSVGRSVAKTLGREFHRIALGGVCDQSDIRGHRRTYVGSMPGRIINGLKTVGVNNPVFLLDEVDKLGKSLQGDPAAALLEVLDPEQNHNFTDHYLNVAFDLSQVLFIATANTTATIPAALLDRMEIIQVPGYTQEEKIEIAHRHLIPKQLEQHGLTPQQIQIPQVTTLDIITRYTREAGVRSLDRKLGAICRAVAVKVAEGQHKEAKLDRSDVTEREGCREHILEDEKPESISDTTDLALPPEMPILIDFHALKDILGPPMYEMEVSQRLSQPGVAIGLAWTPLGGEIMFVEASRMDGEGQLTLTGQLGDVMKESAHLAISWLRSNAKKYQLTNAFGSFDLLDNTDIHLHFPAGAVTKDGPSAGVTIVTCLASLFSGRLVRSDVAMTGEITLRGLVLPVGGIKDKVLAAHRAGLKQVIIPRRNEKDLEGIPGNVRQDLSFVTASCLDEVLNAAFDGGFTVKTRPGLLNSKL
UniProt Q6PHR2: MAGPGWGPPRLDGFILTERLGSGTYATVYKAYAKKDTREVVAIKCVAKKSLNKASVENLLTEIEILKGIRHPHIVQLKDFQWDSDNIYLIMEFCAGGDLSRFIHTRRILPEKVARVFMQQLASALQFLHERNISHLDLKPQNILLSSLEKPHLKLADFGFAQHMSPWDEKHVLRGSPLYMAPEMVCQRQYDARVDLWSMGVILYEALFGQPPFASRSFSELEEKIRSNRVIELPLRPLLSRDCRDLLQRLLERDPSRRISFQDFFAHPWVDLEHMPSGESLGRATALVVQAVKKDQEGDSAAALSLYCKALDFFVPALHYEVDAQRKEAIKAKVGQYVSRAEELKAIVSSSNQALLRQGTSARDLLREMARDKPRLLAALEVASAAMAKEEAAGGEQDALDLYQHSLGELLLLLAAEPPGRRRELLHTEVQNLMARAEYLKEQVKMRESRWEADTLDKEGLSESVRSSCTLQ
UniProt Q7Z7A3: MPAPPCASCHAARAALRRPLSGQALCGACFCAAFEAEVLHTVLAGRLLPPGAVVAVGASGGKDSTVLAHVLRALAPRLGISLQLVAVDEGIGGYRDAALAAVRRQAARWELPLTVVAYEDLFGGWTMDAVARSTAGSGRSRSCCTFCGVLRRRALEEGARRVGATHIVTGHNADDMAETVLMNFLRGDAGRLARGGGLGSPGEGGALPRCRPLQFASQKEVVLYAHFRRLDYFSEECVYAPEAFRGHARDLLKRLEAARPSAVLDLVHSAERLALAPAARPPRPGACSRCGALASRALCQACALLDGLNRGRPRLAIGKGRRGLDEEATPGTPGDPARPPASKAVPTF
UniProt Q86YV9: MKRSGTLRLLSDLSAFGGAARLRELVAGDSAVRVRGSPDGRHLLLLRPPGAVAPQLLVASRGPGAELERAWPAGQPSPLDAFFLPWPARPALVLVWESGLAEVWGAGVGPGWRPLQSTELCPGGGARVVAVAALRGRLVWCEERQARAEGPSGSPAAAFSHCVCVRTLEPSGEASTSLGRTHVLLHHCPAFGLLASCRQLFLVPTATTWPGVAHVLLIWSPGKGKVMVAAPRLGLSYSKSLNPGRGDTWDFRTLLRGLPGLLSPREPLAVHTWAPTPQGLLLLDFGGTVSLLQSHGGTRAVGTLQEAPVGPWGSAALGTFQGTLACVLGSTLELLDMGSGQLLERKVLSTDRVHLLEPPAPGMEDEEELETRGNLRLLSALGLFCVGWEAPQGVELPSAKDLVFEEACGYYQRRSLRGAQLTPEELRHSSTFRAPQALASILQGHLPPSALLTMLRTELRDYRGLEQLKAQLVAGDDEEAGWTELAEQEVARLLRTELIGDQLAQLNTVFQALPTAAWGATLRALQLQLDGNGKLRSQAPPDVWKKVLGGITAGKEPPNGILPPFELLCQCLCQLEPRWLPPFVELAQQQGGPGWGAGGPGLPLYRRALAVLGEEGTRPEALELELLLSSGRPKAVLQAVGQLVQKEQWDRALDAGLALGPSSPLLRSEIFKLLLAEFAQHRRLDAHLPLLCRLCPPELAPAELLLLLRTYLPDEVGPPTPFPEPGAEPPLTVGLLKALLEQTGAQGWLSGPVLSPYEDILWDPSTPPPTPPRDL
UniProt Q86US8: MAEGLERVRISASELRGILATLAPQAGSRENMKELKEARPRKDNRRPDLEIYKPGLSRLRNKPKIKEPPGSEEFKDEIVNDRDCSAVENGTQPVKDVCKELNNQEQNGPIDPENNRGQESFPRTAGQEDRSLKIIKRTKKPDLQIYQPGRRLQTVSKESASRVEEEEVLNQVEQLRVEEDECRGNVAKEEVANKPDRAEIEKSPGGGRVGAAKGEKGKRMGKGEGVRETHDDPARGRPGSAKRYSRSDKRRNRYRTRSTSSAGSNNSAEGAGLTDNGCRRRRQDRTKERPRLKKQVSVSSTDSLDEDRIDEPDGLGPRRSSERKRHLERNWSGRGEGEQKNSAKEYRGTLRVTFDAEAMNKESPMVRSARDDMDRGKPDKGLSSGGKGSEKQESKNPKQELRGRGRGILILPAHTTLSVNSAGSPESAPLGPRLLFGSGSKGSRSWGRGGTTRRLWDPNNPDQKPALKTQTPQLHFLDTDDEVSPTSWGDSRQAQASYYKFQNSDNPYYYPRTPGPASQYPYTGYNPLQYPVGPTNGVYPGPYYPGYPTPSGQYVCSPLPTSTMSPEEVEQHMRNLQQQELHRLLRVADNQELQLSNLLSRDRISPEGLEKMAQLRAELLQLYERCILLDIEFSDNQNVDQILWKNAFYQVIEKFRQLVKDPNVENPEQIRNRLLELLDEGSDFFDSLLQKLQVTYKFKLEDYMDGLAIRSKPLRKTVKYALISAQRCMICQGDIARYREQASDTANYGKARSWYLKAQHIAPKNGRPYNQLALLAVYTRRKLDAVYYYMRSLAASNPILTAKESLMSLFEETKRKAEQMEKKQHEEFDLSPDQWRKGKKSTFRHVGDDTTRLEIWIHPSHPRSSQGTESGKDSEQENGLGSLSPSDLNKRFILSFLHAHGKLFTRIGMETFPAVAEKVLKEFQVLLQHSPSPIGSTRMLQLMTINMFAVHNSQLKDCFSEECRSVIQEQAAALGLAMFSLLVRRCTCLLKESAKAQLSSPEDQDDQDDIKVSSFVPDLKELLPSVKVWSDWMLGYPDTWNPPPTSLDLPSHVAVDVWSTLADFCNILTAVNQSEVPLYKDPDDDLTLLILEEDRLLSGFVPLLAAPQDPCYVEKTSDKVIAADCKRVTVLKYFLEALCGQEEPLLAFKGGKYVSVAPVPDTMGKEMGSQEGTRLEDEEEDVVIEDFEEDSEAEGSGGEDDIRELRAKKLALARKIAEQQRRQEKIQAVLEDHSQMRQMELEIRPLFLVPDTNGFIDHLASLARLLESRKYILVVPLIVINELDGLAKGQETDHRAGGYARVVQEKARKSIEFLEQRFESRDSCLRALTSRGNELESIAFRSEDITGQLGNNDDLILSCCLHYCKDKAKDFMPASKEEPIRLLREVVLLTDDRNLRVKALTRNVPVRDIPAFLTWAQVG
UniProt Q7Z422: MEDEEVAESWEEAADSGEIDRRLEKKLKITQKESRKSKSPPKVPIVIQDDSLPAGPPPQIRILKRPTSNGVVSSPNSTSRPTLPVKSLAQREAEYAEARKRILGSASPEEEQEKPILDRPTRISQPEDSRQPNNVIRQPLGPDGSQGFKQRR
UniProt Q6ULP2: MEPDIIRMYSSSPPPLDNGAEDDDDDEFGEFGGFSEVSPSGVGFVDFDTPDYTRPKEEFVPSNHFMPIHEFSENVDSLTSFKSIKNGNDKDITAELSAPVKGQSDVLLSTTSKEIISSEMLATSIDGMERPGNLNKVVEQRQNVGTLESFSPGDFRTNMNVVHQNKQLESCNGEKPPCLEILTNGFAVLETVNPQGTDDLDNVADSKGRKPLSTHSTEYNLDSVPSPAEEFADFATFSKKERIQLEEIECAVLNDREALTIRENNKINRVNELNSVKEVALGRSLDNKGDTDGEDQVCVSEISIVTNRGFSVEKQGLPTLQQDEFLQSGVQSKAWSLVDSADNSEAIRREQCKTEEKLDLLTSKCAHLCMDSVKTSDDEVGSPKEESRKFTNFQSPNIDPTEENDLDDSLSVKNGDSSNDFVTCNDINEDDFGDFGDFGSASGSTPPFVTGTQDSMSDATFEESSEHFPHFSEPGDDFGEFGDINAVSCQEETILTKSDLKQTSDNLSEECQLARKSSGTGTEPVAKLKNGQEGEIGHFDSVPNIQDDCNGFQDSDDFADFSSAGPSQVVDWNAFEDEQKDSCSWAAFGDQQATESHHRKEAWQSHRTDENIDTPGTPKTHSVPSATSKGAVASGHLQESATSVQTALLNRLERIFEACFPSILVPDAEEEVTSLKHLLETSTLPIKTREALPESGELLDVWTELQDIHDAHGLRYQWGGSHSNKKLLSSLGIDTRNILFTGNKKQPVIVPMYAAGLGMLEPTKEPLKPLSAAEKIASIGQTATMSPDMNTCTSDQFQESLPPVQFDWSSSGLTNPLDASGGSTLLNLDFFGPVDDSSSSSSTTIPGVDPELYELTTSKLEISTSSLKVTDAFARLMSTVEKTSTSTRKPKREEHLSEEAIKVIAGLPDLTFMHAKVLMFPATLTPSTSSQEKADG
UniProt Q86VX2, whole entry: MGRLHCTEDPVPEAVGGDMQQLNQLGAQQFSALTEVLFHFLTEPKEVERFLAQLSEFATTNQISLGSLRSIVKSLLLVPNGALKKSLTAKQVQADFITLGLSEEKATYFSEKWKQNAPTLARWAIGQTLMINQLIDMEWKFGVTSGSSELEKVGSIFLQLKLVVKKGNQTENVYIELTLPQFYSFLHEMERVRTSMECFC
UniProt Q6PH81: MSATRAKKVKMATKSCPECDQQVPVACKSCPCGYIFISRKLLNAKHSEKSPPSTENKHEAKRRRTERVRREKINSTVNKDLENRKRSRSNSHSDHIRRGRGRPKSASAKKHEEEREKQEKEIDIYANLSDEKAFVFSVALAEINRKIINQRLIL
UniProt Q7LDG7: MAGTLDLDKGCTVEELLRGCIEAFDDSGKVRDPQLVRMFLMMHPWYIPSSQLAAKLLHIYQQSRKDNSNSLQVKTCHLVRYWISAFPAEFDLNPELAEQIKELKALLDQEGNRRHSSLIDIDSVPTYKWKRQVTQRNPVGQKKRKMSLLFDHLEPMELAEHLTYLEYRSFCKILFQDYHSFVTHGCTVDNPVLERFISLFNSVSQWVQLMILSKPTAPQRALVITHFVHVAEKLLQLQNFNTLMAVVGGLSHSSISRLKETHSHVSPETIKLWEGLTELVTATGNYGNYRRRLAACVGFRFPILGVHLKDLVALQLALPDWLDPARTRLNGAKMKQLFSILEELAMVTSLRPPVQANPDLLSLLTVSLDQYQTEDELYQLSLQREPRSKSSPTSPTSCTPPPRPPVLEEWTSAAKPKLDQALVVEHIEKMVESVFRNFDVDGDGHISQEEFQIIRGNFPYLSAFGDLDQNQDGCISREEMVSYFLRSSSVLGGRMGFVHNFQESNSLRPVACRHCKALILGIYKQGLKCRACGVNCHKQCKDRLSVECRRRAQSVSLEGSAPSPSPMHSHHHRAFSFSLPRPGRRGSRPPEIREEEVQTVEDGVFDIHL
UniProt Q6YP21: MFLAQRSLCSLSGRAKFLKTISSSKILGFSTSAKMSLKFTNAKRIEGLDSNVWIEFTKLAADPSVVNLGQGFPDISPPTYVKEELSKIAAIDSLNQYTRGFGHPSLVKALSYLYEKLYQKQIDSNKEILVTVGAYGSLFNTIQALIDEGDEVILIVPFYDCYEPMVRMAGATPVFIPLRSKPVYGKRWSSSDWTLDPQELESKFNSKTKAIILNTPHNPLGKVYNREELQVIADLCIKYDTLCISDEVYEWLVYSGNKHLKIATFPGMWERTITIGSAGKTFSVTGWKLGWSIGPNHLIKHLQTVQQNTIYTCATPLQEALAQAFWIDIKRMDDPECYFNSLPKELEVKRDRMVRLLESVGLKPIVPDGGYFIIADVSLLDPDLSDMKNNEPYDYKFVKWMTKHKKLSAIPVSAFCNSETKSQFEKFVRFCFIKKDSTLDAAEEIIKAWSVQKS

Target	NP40-soluble protein abundance (concentration: 1mM)	NP40-soluble protein abundance (concentration: 2mM)	NP40-soluble protein abundance (concentration: 4mM)	NP40-soluble protein abundance (concentration: 6mM)	NP40-soluble protein abundance (concentration: 8mM)	NP40-soluble protein abundance (concentration: 10mM)
UniProt Q712K3	0.958 ± 0.053	0.953 ± 0.025	0.927 ± 0.045	0.958 ± 0.03	0.919 ± 0.017	0.907 ± 0.027
UniProt Q7Z7C8 and related entries	1.04 ± 0.077	1.05 ± 0.048	1.08 ± 0.077	1.13 ± 0.11	1.06 ± 0.094	1.04 ± 0.043
UniProt Q7Z3D6-2|H0YB09 and related entries	1.01 ± 0.046	1.02 ± 0.049	1.02 ± 0.066	1.04 ± 0.11	1.01 ± 0.085	1.03 ± 0.055
UniProt Q86V59 and related entries	1.07 ± 0.059	1.09 ± 0.12	1.16 ± 0.13	1.11 ± 0.061	1.13 ± 0.15	1.13 ± 0.068
UniProt Q6ZRS2 and related entries	1.25 ± 0.085	1.27 ± 0.077	1.31 ± 0.11	1.39 ± 0.23	1.35 ± 0.15	1.39 ± 0.12
UniProt Q86WA8 and related entries	0.939 ± 0.081	0.903 ± 0.042	0.895 ± 0.073	0.85 ± 0.067	0.883 ± 0.03	0.839 ± 0.057
USP34 (UniProt Q70CQ2)	1.01 ± 0.048	1.02 ± 0.04	1.04 ± 0.023	0.963 ± 0.05	1.04 ± 0.012	1.01 ± 0.031
UniProt Q7Z392	1.05 ± 0.17	1.02 ± 0.16	1.01 ± 0.12	0.94 ± 0.16	1.03 ± 0.058	1.01 ± 0.1
UniProt Q8IV53 and related entries	0.984 ± 0.072	0.982 ± 0.071	0.99 ± 0.049	0.976 ± 0.067	0.936 ± 0.041	0.954 ± 0.039
UniProt Q6PHR2 and related entries	1.06 ± 0.061	1.06 ± 0.05	1.03 ± 0.061	1.03 ± 0.092	1.05 ± 0.084	0.993 ± 0.086
UniProt Q8IU85 and related entries	1.07 ± 0.079	1.07 ± 0.059	1.04 ± 0.048	1.03 ± 0.097	1.05 ± 0.077	1.05 ± 0.026
UniProt Q7Z3C6 and related entries	0.972 ± 0.024	1.05 ± 0.056	1.042 ± 0.0084	1.02 ± 0.071	1.017 ± 0.0068	1.07 ± 0.044
UniProt Q7Z7A3	0.952 ± 0.18	1.12 ± 0.3	1.03 ± 0.14	0.958 ± 0.2	1.04 ± 0.16	1.02 ± 0.03
UniProt Q86YP4 and related entries	1 ± 0.076	0.991 ± 0.074	0.998 ± 0.08	1.03 ± 0.13	1 ± 0.091	1.02 ± 0.071
TMEM173 (UniProt Q86WV6)	0.998 ± 0.019	0.984 ± 0.021	0.963 ± 0.023	1 ± 0.053	0.969 ± 0.021	0.974 ± 0.03
HPS6 (UniProt Q86YV9)	0.958 ± 0.032	0.955 ± 0.074	0.96 ± 0.05	0.946 ± 0.067	0.938 ± 0.057	0.982 ± 0.023
PACS1 (UniProt Q6VY07)	0.971 ± 0.032	0.977 ± 0.037	0.982 ± 0.026	0.94 ± 0.038	0.939 ± 0.018	0.985 ± 0.039

Target	NP40-soluble protein abundance (concentration: 1mM)	NP40-soluble protein abundance (concentration: 2mM)	NP40-soluble protein abundance (concentration: 4mM)	NP40-soluble protein abundance (concentration: 6mM)	NP40-soluble protein abundance (concentration: 8mM)	NP40-soluble protein abundance (concentration: 10mM)
SMG6 (UniProt Q86US8)	1.28 ± 0.019	1.25 ± 0.051	1.29 ± 0.0099	1.282 ± 0.0088	1.31 ± 0.034	1.32 ± 0.03
CES3 (UniProt Q6UWW8)	0.972 ± 0.063	1 ± 0.059	0.935 ± 0.04	1.02 ± 0.065	0.932 ± 0.068	0.925 ± 0.067
UniProt Q7Z422 and related entries	0.925 ± 0.14	0.967 ± 0.11	0.943 ± 0.11	1.01 ± 0.14	0.887 ± 0.061	0.89 ± 0.13
UniProt Q6ULP2 and related entries	0.994 ± 0.045	0.999 ± 0.018	0.997 ± 0.027	1.04 ± 0.052	0.978 ± 0.025	1 ± 0.024
UniProt Q7Z434 and related entries	0.98 ± 0.026	0.975 ± 0.014	0.948 ± 0.023	0.9759 ± 0.0053	0.921 ± 0.039	0.9277 ± 0.0053
Q76L82 and related entries (UniProt Q8IXJ9+Q76L82)	1.11 ± 0.081	1.04 ± 0.11	1.03 ± 0.18	1.09 ± 0.15	0.994 ± 0.16	1.1 ± 0.15
UniProt Q86U86 and related entries	1.29 ± 0.021	1.348 ± 0.0056	1.42 ± 0.042	1.52 ± 0.1	1.63 ± 0.065	1.66 ± 0.03
UniProt Q86VX2 and related entries	0.984 ± 0.16	0.938 ± 0.097	0.945 ± 0.072	0.935 ± 0.095	0.975 ± 0.085	0.941 ± 0.075
C16orf87 (UniProt Q6PH81)	0.975 ± 0.087	0.994 ± 0.068	1.01 ± 0.056	1.09 ± 0.076	0.981 ± 0.093	1 ± 0.13
UniProt Q86TM6 and related entries	1 ± 0.0053	1.01 ± 0.029	0.981 ± 0.018	0.929 ± 0.013	0.931 ± 0.044	0.979 ± 0.053
UniProt Q7LDG7 and related entries	1.02 ± 0.032	1.08 ± 0.046	1.11 ± 0.042	1.05 ± 0.036	1.13 ± 0.06	1.13 ± 0.055
RAB11FIP1 (UniProt Q6WKZ4)	0.981 ± 0.051	0.984 ± 0.024	0.979 ± 0.033	1.02 ± 0.03	0.954 ± 0.0055	0.9549 ± 0.0051
UniProt Q7L592	0.964 ± 0.031	0.985 ± 0.02	0.963 ± 0.023	0.948 ± 0.036	0.945 ± 0.054	0.9682 ± 0.007
UniProt Q86W50	0.971 ± 0.026	0.932 ± 0.032	0.935 ± 0.053	0.921 ± 0.023	0.936 ± 0.039	0.936 ± 0.046
UniProt Q7Z4G4 and related entries	1.03 ± 0.16	1.02 ± 0.051	1.01 ± 0.17	0.998 ± 0.11	1.02 ± 0.097	0.996 ± 0.07
UniProt Q6YP21 and related entries	1.06 ± 0.18	1.04 ± 0.12	1.02 ± 0.1	0.944 ± 0.17	1.02 ± 0.091	1.05 ± 0.098

An excerpt of these results, comma-delimited.
Target,NP40-soluble protein abundance (concentration: 1mM),NP40-soluble protein abundance (concentration: 2mM),NP40-soluble protein abundance (concentration: 4mM),NP40-soluble protein abundance (concentration: 6mM),NP40-soluble protein abundance (concentration: 8mM),NP40-soluble protein abundance (concentration: 10mM)
UniProt Q7Z7A3,0.952 ± 0.18,1.12 ± 0.3,1.03 ± 0.14,0.958 ± 0.2,1.04 ± 0.16,1.02 ± 0.03
UniProt Q86YP4 and related entries,1 ± 0.076,0.991 ± 0.074,0.998 ± 0.08,1.03 ± 0.13,1 ± 0.091,1.02 ± 0.071
TMEM173 (UniProt Q86WV6),0.998 ± 0.019,0.984 ± 0.021,0.963 ± 0.023,1 ± 0.053,0.969 ± 0.021,0.974 ± 0.03
HPS6 (UniProt Q86YV9),0.958 ± 0.032,0.955 ± 0.074,0.96 ± 0.05,0.946 ± 0.067,0.938 ± 0.057,0.982 ± 0.023
PACS1 (UniProt Q6VY07),0.971 ± 0.032,0.977 ± 0.037,0.982 ± 0.026,0.94 ± 0.038,0.939 ± 0.018,0.985 ± 0.039
SMG6 (UniProt Q86US8),1.28 ± 0.019,1.25 ± 0.051,1.29 ± 0.0099,1.282 ± 0.0088,1.31 ± 0.034,1.32 ± 0.03
CES3 (UniProt Q6UWW8),0.972 ± 0.063,1 ± 0.059,0.935 ± 0.04,1.02 ± 0.065,0.932 ± 0.068,0.925 ± 0.067

— the supplement of paper PMC6411743
